Most of the targets with a hit are listed elsewhere, so they are rarer here than in the full data. The data scatter; read single values as rough. The entries are a selection whose mix differs from that of the whole data set.
Compound: COC(=O)/C=C/c1ccccc1 [methyl cinnamate]
Assay: log2 ratio of iodoacetamide-alkyne labeling of the cysteine site, DMSO over compound (competition); higher = stronger covalent engagement of the cysteine by the compound, active = 1 or more
Conditions: 500 µM; treatment time 1 h; system: HEK293T cell lysate
In short: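 For each cysteine, the log2 competition ratio is mean control-channel reporter intensity over mean compound-channel reporter intensity. HEK293T lysate (2 mg/mL) was exposed to vehicle or electrophile (500 µM, 1 h, ambient temperature), labelled with iodoacetamide alkyne (1 h), clicked to sCIP-TMT reagents, digested overnight with trypsin at 37 °C, streptavidin-enriched and analysed by Orbitrap Eclipse LC-MS/MS with FAIMS and FragPipe. Cysteines quantified in only one of three replicates, each with duplicate channels, were excluded.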

Chains of the proteins cited; added tags and fusions are not shown. Lines headed by an entry give the natural chain unless they say otherwise; changes in a name come on top.
UniProt Q96EP5: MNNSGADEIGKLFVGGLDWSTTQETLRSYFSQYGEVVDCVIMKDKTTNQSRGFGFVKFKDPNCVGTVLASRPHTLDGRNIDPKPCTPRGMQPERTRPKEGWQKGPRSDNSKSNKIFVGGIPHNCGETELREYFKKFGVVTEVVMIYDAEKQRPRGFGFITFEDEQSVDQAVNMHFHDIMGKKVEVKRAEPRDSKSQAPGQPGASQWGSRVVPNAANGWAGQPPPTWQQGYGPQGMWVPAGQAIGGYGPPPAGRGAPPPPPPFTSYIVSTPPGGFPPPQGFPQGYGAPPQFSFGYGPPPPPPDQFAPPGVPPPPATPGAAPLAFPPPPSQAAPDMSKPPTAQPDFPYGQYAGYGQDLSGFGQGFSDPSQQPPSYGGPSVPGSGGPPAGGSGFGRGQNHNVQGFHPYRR
UniProt Q92747, whole entry: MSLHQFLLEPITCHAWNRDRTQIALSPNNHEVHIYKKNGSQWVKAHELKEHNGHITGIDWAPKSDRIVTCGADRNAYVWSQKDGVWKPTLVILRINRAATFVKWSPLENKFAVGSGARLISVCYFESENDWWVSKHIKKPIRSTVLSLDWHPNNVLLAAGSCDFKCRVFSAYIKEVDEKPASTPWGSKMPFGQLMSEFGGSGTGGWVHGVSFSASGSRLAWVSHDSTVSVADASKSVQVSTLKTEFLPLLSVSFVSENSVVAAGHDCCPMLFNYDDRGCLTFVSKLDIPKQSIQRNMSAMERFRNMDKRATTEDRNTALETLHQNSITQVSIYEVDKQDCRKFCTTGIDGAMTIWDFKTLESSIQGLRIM
UniProt Q92667: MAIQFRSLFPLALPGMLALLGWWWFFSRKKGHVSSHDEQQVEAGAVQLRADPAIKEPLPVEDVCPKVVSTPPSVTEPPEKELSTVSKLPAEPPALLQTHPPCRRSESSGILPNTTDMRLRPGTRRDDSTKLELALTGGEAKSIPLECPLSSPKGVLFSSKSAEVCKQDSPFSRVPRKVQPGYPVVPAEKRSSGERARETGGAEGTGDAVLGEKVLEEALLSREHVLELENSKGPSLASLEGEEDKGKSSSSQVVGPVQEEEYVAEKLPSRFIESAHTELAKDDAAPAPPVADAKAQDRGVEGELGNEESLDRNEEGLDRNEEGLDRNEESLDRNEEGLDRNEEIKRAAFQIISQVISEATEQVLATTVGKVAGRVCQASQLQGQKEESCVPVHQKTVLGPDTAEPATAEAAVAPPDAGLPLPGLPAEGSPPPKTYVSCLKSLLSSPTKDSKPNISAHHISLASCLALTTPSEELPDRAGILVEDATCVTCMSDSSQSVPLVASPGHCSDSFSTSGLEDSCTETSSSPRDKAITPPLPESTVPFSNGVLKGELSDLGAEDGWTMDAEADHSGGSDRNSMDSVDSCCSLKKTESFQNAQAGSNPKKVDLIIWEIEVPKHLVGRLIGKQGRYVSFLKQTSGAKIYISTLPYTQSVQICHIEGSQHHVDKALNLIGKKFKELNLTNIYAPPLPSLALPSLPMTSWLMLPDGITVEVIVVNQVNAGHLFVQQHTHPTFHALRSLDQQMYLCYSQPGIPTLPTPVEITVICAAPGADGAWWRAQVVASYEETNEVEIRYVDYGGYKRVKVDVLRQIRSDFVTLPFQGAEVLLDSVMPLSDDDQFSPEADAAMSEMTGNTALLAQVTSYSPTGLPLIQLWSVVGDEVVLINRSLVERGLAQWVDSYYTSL
UniProt Q96EY8: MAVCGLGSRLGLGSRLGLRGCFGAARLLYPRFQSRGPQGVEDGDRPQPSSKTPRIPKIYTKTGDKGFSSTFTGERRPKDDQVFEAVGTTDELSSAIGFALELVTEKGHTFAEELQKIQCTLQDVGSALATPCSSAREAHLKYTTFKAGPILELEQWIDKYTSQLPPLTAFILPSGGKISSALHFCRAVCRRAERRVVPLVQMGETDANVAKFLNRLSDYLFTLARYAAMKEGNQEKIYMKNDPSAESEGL
UniProt Q969U7: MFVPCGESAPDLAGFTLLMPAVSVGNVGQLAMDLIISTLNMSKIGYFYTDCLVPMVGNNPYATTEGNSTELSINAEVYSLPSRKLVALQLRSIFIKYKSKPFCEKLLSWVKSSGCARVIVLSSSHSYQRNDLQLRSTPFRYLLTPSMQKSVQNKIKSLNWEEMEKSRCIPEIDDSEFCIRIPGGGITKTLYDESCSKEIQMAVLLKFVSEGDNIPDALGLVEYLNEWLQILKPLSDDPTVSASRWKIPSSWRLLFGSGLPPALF
UniProt Q96DG6: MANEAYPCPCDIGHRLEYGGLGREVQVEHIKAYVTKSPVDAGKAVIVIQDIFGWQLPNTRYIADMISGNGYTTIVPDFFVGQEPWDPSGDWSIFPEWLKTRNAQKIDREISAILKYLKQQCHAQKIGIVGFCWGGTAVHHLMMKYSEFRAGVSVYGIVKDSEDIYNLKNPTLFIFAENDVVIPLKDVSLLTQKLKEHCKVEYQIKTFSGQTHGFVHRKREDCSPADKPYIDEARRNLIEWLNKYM
UniProt Q96D70: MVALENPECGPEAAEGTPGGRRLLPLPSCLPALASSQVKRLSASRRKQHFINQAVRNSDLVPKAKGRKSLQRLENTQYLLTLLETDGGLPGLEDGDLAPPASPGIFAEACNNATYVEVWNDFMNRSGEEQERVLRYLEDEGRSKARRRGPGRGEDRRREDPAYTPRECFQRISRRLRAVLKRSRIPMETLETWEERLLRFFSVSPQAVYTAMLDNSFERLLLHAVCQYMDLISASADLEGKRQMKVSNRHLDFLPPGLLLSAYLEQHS
UniProt Q96GD0: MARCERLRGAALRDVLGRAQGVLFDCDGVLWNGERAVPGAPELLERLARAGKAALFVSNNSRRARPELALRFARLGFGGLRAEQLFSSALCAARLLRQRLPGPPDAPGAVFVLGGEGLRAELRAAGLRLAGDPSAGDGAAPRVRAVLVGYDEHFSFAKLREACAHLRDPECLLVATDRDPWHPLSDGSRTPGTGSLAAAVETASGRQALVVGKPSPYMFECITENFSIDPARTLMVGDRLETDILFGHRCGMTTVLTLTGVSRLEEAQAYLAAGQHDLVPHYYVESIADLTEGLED
UniProt Q96EK5: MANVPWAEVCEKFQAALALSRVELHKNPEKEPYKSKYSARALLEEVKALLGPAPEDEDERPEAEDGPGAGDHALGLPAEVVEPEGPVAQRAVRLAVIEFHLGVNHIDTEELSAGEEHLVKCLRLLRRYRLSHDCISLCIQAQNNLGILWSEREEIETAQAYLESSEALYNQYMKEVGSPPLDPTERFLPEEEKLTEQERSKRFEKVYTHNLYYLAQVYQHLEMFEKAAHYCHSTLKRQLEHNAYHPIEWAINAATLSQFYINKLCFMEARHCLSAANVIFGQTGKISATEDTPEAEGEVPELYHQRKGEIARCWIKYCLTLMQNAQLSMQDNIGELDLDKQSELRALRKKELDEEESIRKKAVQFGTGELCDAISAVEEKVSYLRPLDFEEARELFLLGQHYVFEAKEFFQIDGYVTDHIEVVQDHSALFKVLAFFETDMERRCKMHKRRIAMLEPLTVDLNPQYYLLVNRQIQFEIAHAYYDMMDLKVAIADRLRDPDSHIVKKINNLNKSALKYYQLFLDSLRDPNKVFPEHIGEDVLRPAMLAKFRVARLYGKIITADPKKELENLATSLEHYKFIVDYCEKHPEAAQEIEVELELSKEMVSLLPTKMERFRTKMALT
UniProt Q92615, whole entry, looked up: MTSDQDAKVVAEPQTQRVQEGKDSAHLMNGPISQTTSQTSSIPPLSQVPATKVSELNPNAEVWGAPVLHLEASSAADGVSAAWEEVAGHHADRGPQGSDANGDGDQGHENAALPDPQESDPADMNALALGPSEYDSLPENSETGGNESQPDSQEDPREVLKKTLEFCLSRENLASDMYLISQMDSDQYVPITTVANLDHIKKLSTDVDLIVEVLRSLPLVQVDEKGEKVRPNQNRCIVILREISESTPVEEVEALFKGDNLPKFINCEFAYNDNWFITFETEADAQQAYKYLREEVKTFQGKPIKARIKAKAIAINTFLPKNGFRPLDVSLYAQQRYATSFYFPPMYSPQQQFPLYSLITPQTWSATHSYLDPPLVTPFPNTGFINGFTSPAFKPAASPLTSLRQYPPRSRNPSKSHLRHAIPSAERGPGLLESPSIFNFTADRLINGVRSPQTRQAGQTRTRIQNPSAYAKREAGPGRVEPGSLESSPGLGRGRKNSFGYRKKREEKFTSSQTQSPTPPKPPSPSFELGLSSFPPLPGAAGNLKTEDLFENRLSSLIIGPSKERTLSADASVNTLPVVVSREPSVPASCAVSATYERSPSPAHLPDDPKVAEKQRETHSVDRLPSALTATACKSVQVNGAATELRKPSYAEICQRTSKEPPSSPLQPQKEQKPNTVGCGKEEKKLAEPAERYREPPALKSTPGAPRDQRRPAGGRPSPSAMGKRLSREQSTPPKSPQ
UniProt Q92576, whole entry, looked up: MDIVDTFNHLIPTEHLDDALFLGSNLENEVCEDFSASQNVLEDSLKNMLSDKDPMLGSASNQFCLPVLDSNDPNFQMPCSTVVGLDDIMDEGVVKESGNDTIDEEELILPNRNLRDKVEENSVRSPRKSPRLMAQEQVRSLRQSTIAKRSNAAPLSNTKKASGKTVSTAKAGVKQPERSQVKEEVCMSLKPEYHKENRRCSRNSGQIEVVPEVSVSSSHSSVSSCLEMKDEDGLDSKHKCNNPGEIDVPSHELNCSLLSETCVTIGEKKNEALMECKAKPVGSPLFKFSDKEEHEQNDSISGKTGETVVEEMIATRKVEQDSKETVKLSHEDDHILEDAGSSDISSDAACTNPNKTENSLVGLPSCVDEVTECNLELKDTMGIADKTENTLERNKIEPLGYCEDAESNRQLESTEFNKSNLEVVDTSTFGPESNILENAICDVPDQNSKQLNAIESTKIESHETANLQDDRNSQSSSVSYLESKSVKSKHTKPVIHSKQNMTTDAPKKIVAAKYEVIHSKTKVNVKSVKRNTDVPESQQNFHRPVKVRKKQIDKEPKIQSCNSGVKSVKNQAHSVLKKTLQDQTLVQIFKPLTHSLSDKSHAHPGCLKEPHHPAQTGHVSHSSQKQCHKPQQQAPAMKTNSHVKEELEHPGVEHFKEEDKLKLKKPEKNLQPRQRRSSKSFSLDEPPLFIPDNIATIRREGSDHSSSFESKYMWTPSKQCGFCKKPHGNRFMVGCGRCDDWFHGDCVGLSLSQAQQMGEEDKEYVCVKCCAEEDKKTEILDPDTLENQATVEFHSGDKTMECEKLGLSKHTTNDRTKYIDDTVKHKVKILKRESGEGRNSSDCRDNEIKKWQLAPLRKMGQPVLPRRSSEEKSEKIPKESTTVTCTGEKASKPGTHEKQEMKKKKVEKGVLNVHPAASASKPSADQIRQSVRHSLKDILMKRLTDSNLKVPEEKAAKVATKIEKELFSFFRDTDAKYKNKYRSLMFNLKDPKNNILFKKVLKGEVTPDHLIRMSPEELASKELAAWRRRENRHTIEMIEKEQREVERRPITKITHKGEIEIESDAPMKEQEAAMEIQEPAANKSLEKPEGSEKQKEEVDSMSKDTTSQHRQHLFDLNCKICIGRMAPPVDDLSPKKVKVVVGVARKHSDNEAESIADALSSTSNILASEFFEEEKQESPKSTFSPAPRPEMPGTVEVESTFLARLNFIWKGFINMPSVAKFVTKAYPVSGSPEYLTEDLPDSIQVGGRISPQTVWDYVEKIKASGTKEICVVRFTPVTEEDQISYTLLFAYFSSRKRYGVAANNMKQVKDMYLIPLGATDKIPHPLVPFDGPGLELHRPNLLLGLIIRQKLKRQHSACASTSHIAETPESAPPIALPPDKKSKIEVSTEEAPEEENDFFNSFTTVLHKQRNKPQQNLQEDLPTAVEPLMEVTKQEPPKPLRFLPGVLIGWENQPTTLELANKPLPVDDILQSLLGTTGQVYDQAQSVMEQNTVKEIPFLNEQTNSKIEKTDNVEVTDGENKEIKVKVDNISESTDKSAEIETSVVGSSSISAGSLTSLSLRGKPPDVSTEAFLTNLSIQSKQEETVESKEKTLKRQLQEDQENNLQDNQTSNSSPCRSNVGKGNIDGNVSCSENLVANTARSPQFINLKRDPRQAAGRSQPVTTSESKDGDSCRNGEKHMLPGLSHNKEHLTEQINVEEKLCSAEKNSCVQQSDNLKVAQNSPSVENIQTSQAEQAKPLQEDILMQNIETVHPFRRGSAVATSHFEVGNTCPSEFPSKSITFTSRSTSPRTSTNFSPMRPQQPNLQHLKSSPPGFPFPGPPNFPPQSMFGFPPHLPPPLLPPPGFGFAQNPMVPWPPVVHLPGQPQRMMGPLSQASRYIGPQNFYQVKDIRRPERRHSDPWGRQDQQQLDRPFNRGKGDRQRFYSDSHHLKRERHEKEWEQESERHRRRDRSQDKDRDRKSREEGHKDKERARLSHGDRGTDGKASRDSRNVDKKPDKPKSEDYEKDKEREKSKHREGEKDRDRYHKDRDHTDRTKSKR

Target	log2 ratio of iodoacetamide-alkyne labeling
APIP C147 (UniProt Q96GX9)	inactive: -0.0352
UniProt Q96G28_C138	inactive: -0.052
DAZAP1 C63 (UniProt Q96EP5)	inactive: 0.191
ARPC1A C13 (UniProt Q92747)	inactive: 0.252
UniProt Q96EY5_C231	inactive: 0.38
USP7 C315 (UniProt Q93009)	inactive: 0.359
UBE2E3 C81 (UniProt Q969T4)	inactive: 0.409
AKAP1 C147 (UniProt Q92667)	inactive: 0.26
MMAB C132 (UniProt Q96EY8)	inactive: -0.118
TMCO6 C57 (UniProt Q96DC7)	inactive: 0.13
PSMG2 C168 (UniProt Q969U7)	inactive: 0.0102
PDLIM5 C446 (UniProt Q96HC4)	inactive: 0.227
CMBL C8 (UniProt Q96DG6)	inactive: -0.0212
R3HDM4 C29 (UniProt Q96D70)	inactive: 0.0512
UniProt Q96HE7_C241	inactive: -0.0391
PDXP C91 (UniProt Q96GD0)	inactive: -0.0107
UniProt Q96EM0_C39	inactive: 0.0607
UniProt Q96EK5_C10	inactive: -0.0839
TSC1 C306 (UniProt Q92574)	inactive: 0.513
UniProt Q96EH3_C233	inactive: -0.216
Sirt1 C574 (UniProt Q96EB6)	inactive: 0.285
UniProt Q92615_C633	inactive: 0.406
PHF3 C885 (UniProt Q92576)	inactive: 0.532

Four entries from above, reformatted.
Target | log2 ratio of iodoacetamide-alkyne labeling
UniProt Q96G28_C138 | inactive: -0.052
DAZAP1 C63 (UniProt Q96EP5) | inactive: 0.191
PSMG2 C168 (UniProt Q969U7) | inactive: 0.0102
UniProt Q96EK5_C10 | inactive: -0.0839
